# Results: the supplement of paper PMC12819154, “High-throughput peptide-centric local stability assay extends protein–ligand identification to membrane proteins, tissues and bacteria” (Nature Structural & Molecular Biology, 2025)
# This is one part of the list. Most values lie at the level of the controls, where differences are scatter.
# Compound: CC1(C)S[C@@H]2[C@H](NC(=O)[C@H](N)c3ccccc3)C(=O)N2[C@H]1C(=O)O [ampicillin]
# Assay: log2 fold change of tryptic peptide abundance, ligand vs vehicle (limited proteolysis) (log2 ratio); higher = more trypsin-susceptible (destabilized)
# Settings: ligand concentration: 10 uM; sample: E. coli crude lysate
row,Target,log2 fold change
1,"UniProt P33934 (peptide sequence: GVITVAATDR, peptide start residue: 214)",0.178
2,"UniProt P37313 (peptide sequence: LNPDDRR, peptide start residue: 268)",-0.286
3,"UniProt P45551 (peptide sequence: SEQGTMAMTHMASALMR, peptide start residue: 39)",0.094
4,"UniProt P37631 (peptide sequence: FTQWDFIDLVNKHGIAWHEK, peptide start residue: 77)",0.14
5,"UniProt P37649 (peptide sequence: RIDDPHAAVAILRPLR, peptide start residue: 540)",0.29
6,"UniProt P39288 (peptide sequence: LQAWLDK, peptide start residue: 40)",-0.197
7,"UniProt P42620 (peptide sequence: LEQILGQHR, peptide start residue: 220)",0.439
8,"UniProt P36672 (peptide sequence: FVLNQPANARPKEIEQLPMVK, peptide start residue: 35)",0.225
9,"UniProt P39407 (peptide sequence: DIQQFIEKPPGKLR, peptide start residue: 248)",-0.54
10,"UniProt P39383 (peptide sequence: GILLADGVITRR, peptide start residue: 16)",-0.482
11,"UniProt P39410 (peptide sequence: DGGIHAIESTVLVTSNR, peptide start residue: 254)",0.234
